Results on one substance are retold here after patent publication US20160200829A1.

By UniProt entry, the sequences of proteins in these tests, tags left out.
UniProt Q96GC6: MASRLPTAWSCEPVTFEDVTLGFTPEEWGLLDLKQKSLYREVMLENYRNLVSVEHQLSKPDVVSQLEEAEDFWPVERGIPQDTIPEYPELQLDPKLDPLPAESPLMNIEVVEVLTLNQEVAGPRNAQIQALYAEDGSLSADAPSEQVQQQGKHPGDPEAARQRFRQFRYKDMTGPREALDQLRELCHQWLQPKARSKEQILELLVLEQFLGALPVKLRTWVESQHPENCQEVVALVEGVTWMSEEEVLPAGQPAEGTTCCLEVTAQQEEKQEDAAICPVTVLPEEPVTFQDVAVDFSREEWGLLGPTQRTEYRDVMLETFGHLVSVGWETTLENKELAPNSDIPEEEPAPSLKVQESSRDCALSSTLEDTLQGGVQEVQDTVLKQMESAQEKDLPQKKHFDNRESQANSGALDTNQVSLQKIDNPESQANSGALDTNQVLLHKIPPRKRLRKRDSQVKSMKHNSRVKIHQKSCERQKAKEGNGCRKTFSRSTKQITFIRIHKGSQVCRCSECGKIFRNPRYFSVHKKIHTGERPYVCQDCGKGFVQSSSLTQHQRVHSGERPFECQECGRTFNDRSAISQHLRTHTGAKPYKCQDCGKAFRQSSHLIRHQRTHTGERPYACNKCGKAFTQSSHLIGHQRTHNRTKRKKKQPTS
UniProt Q15776: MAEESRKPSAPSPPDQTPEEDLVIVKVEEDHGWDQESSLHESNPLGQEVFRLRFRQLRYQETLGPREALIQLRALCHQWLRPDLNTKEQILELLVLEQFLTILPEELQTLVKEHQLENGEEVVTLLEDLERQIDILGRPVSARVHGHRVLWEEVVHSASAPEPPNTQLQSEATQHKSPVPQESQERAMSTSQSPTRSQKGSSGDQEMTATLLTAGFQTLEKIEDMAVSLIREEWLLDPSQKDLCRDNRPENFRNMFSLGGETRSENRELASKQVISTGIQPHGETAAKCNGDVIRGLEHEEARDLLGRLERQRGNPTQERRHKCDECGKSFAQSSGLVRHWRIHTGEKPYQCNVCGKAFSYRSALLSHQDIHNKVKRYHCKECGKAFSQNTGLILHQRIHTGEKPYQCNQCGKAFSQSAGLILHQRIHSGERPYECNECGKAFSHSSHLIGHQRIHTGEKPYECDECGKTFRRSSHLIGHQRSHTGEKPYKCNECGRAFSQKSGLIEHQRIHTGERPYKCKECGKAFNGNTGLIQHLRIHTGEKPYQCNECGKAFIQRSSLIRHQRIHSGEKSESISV
UniProt Q13263: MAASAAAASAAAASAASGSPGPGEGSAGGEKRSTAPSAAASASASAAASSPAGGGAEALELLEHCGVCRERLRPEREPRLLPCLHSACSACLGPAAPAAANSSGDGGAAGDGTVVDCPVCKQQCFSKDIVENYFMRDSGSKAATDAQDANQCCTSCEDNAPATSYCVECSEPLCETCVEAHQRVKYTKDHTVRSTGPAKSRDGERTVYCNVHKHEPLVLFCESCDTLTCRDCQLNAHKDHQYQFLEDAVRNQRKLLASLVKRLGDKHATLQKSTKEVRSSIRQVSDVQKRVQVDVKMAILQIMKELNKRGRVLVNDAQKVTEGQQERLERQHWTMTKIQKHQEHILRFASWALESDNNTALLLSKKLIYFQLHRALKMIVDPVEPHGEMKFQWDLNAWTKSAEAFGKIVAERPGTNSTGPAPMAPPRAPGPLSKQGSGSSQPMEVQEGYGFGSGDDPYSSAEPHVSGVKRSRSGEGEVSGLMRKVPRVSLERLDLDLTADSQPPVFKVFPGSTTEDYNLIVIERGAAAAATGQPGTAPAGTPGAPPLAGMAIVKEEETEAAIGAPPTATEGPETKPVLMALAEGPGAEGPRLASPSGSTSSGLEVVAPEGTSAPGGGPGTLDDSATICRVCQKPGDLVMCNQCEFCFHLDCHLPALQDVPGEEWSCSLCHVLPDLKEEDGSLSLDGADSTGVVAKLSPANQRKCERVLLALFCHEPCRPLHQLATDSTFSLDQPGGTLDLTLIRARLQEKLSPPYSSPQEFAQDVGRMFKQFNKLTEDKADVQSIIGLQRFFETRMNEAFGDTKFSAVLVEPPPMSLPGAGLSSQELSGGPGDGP

One assay concerns the target ZNF274 (human) (UniProt Q96GC6). The assay can be described thus: co-IP with FLAG antibody from HMLE/FLAG-KAP1 lysate, Western blot.
A further assay deals with ZNF192/ZKSCAN8 (human) (UniProt Q15776). Described as above.

These are yes or no findings as the source states them, for the method shown. Binding seen in cells or lysates may run through a third protein. Some entries that bind do so weakly or less than the wild type.

Take FLAG-KAP1 (from UniProt Q13263 1-835): the binding entry with ZNF274 (human) and with ZNF192/ZKSCAN8 (human) was “binds” throughout.
